In US20080027145A1 (priority 2004, published 2008):

Assay: peptide made by a vendor
Settings: whole synthesis

## HRAEVQIARKLQCIADQFHRLHTQ
  final purity (method not given): 85%

End groups of sequences in plain letters are not given here.
